According to patent US20220298237A1 (KEIO UNIVERSITY, published 2022):
These are yes or no findings as the source states them, for the method shown. Binding calls can cover weak binding; strength is not graded here.

Biological target: AQP3 on AQP3 expressing CHO cells (species not stated)
Test: FACS on AQP3 expressing CHO cells, Fab

Row | Binder | binding
1 | BC-A8 (Fab) (Fab, V domains shown) VH: QTVKESGGRLVTPGAPLTLTCTVSRFSLSSYAMTWVRQAPGKGLEWIGIINNDGSSSTWYASWVKGRFTISKTSTTMDLKMTSLTTEDTATYFCARGGTSGYDIWGPGTLVTVSL VL: AQGLTQTPSPVSAAVGGTVTINCQSSPSVYKNYLSWYQQKPGQPPKLLIYGASTLASGVPSRFKGSGSGTQFTLTISDVQCDDAATYYCAGGYRGSSDIFAFGGGTEVVVK | binds
2 | BC-E2 (Fab) (Fab, V domains shown) VH: QEQLKESGGRLVTPGAPLTLTCTVSRFSLSSYAMTWVRQAPGKGLEWIGIINNDGISSTWYASWVKGRFTISKTSTTMDLKMTSLTTEDTATYFCARGGTSGYDIWGPGTLVTVSL VL: AVVLTQTPSPVSAAVGGTVTINCQSSPSVYKNYLSWYQQKPGQPPKLLIYKASTLASGVPSRFKGSGSGTQFTLTISDVQCDDAATYYCAGGYRGSSDIFAFGGGTEVVVK | binds
3 | BC-B10 (Fab) (Fab, V domains shown) VH: QSVEESGGRLVTPGAPLTLTCTVSRFSLSSYAMTWVRQAPGKGLEWIGIINNDVISSTWYASWVKGRFTISKTSTTMELKMTSLTTEDTATYFCARGGTSGYDIWGPGTLVTVSS VL: AIKMTQTPSPVSAAVGGTVTINCQSSPSVYKNYLSWYQQKPGQPPKLLIYGASTLASGVPSRFKGSGSGTQFTLTISDVQCDDAATYYCAGGYIGSRDIFSFGGGTEVVVK | binds
4 | BC-B8 (Fab) (Fab, V domains shown) VH: QSLEESGGRLVTPGTPLTLTCTVSGFSLYTYAMGWVRQAPGKGLEWIGIINNDGISSTWYASWVKGRFTISKTSTTMDLKMTSLTTEDTATYFCARGGTSGYDIWGPGTLVTVSL VL: AQGLTQTPSPVSAAVGGTVTINCQSGPSVYKNYLSWYQQKAGQPPKLLIYGASTLASGVPSRFKGSGSGTQFTLTISDVQCDDAATYYCAGGYRGSSDIFAFGGGTEVVVK | binds
5 | BC-D3 (Fab) (Fab, V domains shown) VH: QSLEESGGRLVTPGTPLTLTCTVSGFSLYTYAMGWVRQAPGKGLEWIGIINNDGISSTWYASWVKGRFTISKTSTTMDLKMTSLTTEDTATYFCARGGTSGYDIWGPGTLVTVSL VL: AQGLTQTPSPVSAAVGGTVTINCQSGPSVYKNYLSWYQQKAGQPPKLLIYGASTLASGVPSRFKGSGSGTQFTLTISDVQCDDAATYYCAGGYRGSSDIFAFGGGTEVVVK | binds
6 | BC-E1 (Fab) (Fab, V domains shown) VH: QSVKESGGRLVAPGTPLTLTCAVSGFSLSSYAMTWVRQAPGKGLEWIGIINNDGRSSTWYASWVKGRFTISKTSTTMDLKMTSPTTEDTATYFCARGGTSGYDIWGPGTLVTVSL VL: AQGMTQTPSPVSAAVGGTVTINCQSSPSVYKNYLSWYQQKPGQPPKLLIYGASTLASGVPSRFKGSGSGTRFTLTISDVQCDDAATYYCAGGYRGSSDIFAFGGGTEVVVK | binds
7 | BC-G6 (Fab) (Fab, V domains shown) VH: QSVEESGGRLVTPGGSLTLTCTASGFSLSGYAMTWVRQAPGKGLEWIGIINNDGISSTWYASWVKGRFTISKTSTTMDLKMTSLTTEDTATYFCARGGTSGYDIWGPGTLVTVSL VL: ALVMTQTPSPVSAAVGGTVTINCQSSPSVYKNYLSWYQQKPGQPPKLLIYGASTLASGVPSRFKGSGSGTQFTLTISDVQCDDAATYYCAGGYRGSSDIFAFGGGTEVVVK | binds
8 | SC-F6 (Fab) (Fab, V domains shown) VH: QSVKESGGRLVTPGAPLTLTCTVSRFSLSSYAMTWVRQAPGKGLEWIGIINNDGISSTWYASWVKGRFTISKTSTTMDLKMTSLTTEDTATYFCARGGTSGYDIWGPGTLVTVSL VL: AQGMTQTPASVSAAVGGTVTINCQSSPSVYKNYLSWYQQKSGQPPKLLIYGASTLASGVPSRFKGSGSGTQFTLTISDVQCDDAATYYCAGGYRGSSDIFAFGGGTEVVVK | binds
9 | BC-F2 (Fab) (Fab, V domains shown) VH: QSVKESGGRLVAPGTPLTLTCAVSGFSLSSYAMTWVRQAPGKGLEWIGIINNDGRSSTWYASWVKGRFTISKTSTTMDLKMTSPTTEDTATYFCARGGTSGYDIWGPGTLVTVSL VL: AQGMTQTPSPVSAAVGGTVTINCQSSPSVYKNYLSWYQQKPGQPPKLLIYGASTLASGVPSRFKGSGSGTRFTLTISDVQCDDAATYYCAGGYRGSSDIFAFGGGTEVVVK | binds
10 | BC-A9 (Fab) (Fab, V domains shown) VH: QSVEESGGRLVTPGGSLTLTCTVSRFSLSSYAMTWVRQAPGKGLEWIGIINNDGISSTWYASWVKGRFTISKTSTTMDLKMTSLTTEDTATYFCARGGTSGYDIWGPGTVVTVSL VL: AQGLTQTPASVSAAVGGTVTINCQSSPSVYKNYLSWYQQKSGQPPKLLIYGASTLASGAPSRFKGSGSGTQFTLTISDVQCDDAATYYCAGGYRGSSDIFAFGGGTEVVVK | binds
11 | BC-C8 (Fab) (Fab, V domains shown) VH: QSLEESGGRLVTPGGSLTLTCTVSRFSLSSYAMTWVRQAPGKGLEWIGIINNDGISSTWYASWVKGRFTISKTSTTMDLKMTSLTTEDTATYFCARGGTSGYDIWGPGTVVTVSL VL: ALVLTQTPSPVSAAVGGTVTINCQSSPSVYKNYLSWYQQKPGQPPKLLIYGASTLASGVPSRFKGSGSGTQFTLTISDVQCDDAATYYCAGGYRGSSDIFAFGGGTEVVVK | binds
12 | BC-H4 (Fab) (Fab, V domains shown) VH: QQLKESGGRLVTPGAPLTLTCTVSRFSLSSYAMTWVRQAPGKGLEWIGIINNDGVSSTWYASWVKGRFTISKTSTTMDLKMTSLTTEDTATYFCARGGTSGYDIWGPGTLVTVSS VL: ALVLTQTPSPVSAAVGGTVTINCQSSPSVYKNYLSWYQQKPGQPPKLLIYGASTLASGVPSRFKGSGSGTQFTLTISDVQCDDAATYYCAGGYRGSGDIFAFGGGTEVVVK | binds
13 | SC-C7 (Fab) (Fab, V domains shown) VH: QTVKESGGRLVTPGAPLTLTCTVSRFSLSGYAMTWVRQAPGKGLEWIGIINNDISGSTWYASWVKGRFTISKTSTTMDLKMTSLTTEDTATYFCARGGTSGYDIWGPGTLVTVSS VL: DVVMTQTPSPVSAAVGGTVTINCQSSPSVYKNYLSWYQQKPGQPPKLLIYGASTLASGVPSRFKGSGSGTQFTLTISDVQCDDAATYYCAGGYRGSSDIFAFGGGTEVVVK | binds
14 | SC-H10 (Fab) (Fab, V domains shown) VH: QSLEESGGRLVTPGAPLTLTCTVSRFSLSSYAMTWVRQAPGKGLEWIGIINNDGISSTWYASWVKGRFTISKTSTTMDLKMTSLTTEDTATYFCARGGTSGYDIWGPGTLVTVSL VL: AQGLTQTPSPVSAAVGGTVTINCQSSPSVYKNYLSWYQQKPGQPPKLLIYGASTLASGVPSRFSGSGSGTQFTLTISDVQCDDAATYYCAGGYRGSSDIFAFGGGTEVVVK | binds

The next lines start with the values.

Row | binding | Binder
15 | binds | SC-D10 (Fab) (Fab, V domains shown) VH: QSVKESGGRLVTPGGSLTLTCTVSRFSLSSYAMTWVRQAPGKGLEWIGIINNDGVSSTWYASWVKGRFTISKTSTTMDLKMTSLTTEDTATYFCARGGTSGYDIWGPGTLVTVSL VL: ALVMTQTPSPVSAAVGGTVTTNCQSSPSVYKNYLSWYQQKPGQPPKLLIYKASTLASGVPSRFSGSGSGTQFTLTISDVQCDDAATYYCAGGYRGSSDIFAFGGGTEVVVK
16 | binds | SC-G8 (Fab) (Fab, V domains shown) VH: QSVEESGGRLVMPGGSLTLTCTASGFSLSSYAMTWVRQAPGKGLEWIGIINNDGSGSTWYASWVKGRFTISKTSTTMDLKMTSLTTEDTATYFCARGGTSGYDIWGPGTLVTVSL VL: AAVLTQTPSPVSAAVGGTVTINCQSSPSVYKNYLSWYQQKPGQPPKLLIYKASTLASGVPSRFKGSGSGTQFTLTISDVQCDDAATYYCAGGYRGYSDIFAFGGGTEVVVK
17 | binds | BC-E3 (Fab) (Fab, V domains shown) VH: QSVKESGGRLVAPGTPLTLTCAVSGFSLSSYAMTWVRQAPGKGLEWIGIINNDGRSSTWYASWVKGRFTISKTSTTMDLKMTSPTTEDTATYFCARGGTSGYDIWGPGTLVTVSL VL: AQGMTQTPSPVSAAVGGTVTINCQSSPSVYKNYLSWYQQKPGQPPKLLIYGASTLASGVPSRFKGSGSGTRFTLTISDVQCDDAATYYCAGGYRGSSDIFAFGGGTEVVVK
18 | binds | BC-B4 (Fab) (Fab, V domains shown) VH: QSVEESGGRLVTPGGSLTLTCTVSRFSLSSYAMTWVRQAPGKGLEWIGIINNDGISSTWYASWVKGRFTISKTSTTMDLKMTSLTTEDTATYFCARGGTSGYDIWGPGTVVTVSL VL: ALVLTQTPSPVSAAVGGTVTINCQSSQSVYKNYLSWYQQKPGQPPKLLIYGASTLASGVPSRFKGSGSGTQFTLTISDVQCDDAATYYCAGGYRGSGDIFAFGGGTEVVVK
19 | binds | BC-E4 (Fab) (Fab, V domains shown) VH: QSVKESGGRLVAPGTPLTLTCAVSGFSLSSYAMTWVRQAPGKGLEWIGIINNDGRSSTWYASWVKGRFTISKTSTTMDLKMTSPTTEDTATYFCARGGTSGYDIWGPGTLVTVSL VL: AQGMTQTPSPVSAAVGGTVTINCQSSPSVYKNYLSWYQQKPGQPPKLLIYGASTLASGVPSRFKGSGSGTRFTLTISDVQCDDAATYYCAGGYRGSSDIFAFGGGTEVVVK
20 | binds | BC-E11 (Fab) (Fab, V domains shown) VH: QSVKESGGRLVAPGTPLTLTCAVSGFSLSSYAMTWVRQAPGKGLEWIGIINNDGRSSTWYASWVKGRFTISKTSTTMDLKMTSPTTEDTATYFCARGGTSGYDIWGPGTLVTVSL VL: AQGMTQTPSPVSAAVGGTVTINCQSSPSVYKNYLSWYQQKPGQPPKLLIYGASTLASGVPSRFKGSGSGTRFTLTISDVQCDDAATYYCAGGYRGSSDIFAFGGGTEVVVK
21 | binds | BC-F7 (Fab) (Fab, V domains shown) VH: QSVEESGGRLVTPGGSLTLTCTVSRFSLSSYAMTWVRQAPGKGLEWIGIINNDGISSTWYASWVKGRFTISKTSTTMDLKMTSLTTEDTATYFCARGGTSGYDIWGPGTVVTVSL VL: ALVLTQTPSPVSAAVGGTVTINCQSSQSVYKNYLSWYQQKPGQPPKLLIYGASTLASGVPSRFKGSGSGTQFTLTISDVQCDDAATYYCAGGYRGSGDIFAFGGGTEVVVK
22 | binds | BC-A3 (Fab) (Fab, V domains shown) VH: QTVKESGGRLVTPGAPLTLTCTVSRFSLSSYAMTWVRQAPGKGLEWIGIINNDGVSSTWYASWVKGRFTISKTSTTMDLKMTSLTTEDTATYFCARGGTSGYDIWGPGTLVTVSL VL: AQVLTQTPASVSAAVRGTVTINCQSSPSVYKNYLSWYQQKSGQPPKLLIYGASTLASGVPSRFKGSGSGTQFTLTISDVQCDDAATYYCAGGYRGSSDIFAFGGGTEVVVK
